Source: paper PMC12515809
Results are given in words; binding and its absence hold for the method and conditions named. Binding seen in cells or lysates may run through a third protein. Some results given as binding are weak or reduced against the parent protein; the word gives no strength.

Chains of the proteins cited; added tags and fusions are not shown.
UniProt O97159: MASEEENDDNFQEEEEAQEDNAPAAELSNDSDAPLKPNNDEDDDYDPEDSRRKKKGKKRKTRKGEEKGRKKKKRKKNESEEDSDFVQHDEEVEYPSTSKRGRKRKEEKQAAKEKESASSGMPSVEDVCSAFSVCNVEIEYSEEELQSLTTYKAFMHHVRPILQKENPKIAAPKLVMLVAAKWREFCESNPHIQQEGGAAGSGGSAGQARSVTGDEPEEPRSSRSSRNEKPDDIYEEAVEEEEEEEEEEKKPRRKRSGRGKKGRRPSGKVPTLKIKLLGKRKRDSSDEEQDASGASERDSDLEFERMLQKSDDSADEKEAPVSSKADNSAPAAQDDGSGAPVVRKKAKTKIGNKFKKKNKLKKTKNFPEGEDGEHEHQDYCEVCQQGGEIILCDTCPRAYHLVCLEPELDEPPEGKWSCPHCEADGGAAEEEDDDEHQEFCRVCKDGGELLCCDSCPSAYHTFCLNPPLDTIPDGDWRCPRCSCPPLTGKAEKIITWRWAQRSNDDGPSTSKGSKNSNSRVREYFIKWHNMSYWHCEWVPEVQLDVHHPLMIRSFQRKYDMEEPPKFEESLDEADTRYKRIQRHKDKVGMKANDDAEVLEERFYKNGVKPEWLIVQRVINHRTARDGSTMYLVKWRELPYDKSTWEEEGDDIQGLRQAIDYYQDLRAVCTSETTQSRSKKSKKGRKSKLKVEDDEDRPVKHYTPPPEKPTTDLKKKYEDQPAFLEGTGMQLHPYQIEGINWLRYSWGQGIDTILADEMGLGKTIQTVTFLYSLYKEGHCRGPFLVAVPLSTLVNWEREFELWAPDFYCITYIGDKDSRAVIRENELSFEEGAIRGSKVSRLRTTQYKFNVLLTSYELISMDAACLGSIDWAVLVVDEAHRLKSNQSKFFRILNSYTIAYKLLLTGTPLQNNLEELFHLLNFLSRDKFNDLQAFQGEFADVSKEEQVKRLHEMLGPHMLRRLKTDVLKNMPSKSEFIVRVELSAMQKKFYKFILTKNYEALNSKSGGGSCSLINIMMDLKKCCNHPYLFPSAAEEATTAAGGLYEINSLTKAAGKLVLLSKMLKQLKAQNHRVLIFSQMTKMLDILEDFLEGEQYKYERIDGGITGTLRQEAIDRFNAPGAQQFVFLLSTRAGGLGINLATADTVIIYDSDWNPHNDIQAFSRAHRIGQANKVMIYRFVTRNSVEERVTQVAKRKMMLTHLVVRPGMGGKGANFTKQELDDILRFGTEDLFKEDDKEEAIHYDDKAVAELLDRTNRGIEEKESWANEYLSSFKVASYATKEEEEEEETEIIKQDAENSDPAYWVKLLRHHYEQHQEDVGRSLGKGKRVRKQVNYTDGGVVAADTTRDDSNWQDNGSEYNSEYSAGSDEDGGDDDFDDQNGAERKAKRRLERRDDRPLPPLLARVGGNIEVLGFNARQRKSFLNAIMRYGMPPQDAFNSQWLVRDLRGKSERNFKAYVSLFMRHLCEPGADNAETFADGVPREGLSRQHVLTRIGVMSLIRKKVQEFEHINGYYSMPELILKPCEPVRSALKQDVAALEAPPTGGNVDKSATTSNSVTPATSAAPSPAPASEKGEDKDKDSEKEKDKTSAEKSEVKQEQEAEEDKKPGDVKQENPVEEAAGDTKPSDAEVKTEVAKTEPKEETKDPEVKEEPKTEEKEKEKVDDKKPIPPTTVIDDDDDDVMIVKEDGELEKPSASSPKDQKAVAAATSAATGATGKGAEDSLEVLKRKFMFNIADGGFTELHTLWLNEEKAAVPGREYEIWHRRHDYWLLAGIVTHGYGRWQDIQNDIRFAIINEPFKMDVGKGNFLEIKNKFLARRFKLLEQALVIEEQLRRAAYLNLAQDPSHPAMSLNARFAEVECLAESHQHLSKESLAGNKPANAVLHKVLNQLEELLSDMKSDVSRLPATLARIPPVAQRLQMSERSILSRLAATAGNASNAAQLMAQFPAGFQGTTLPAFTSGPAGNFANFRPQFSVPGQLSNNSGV
UniProt Q95V55: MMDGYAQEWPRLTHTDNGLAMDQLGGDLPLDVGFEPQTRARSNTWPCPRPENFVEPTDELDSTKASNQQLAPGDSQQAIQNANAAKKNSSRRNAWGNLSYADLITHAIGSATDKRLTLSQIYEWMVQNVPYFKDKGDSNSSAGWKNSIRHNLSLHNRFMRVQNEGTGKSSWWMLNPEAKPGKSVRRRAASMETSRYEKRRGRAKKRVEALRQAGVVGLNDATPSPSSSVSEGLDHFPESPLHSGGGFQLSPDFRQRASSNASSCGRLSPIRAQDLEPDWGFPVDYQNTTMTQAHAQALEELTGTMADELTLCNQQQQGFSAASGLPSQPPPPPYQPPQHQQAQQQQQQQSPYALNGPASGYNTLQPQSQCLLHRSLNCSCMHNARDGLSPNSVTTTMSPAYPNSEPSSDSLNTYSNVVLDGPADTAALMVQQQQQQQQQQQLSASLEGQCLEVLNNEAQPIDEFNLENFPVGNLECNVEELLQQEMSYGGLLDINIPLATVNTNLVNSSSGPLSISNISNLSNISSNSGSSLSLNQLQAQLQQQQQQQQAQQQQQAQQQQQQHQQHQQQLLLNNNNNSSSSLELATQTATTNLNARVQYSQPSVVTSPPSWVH

Columns and labels:
[1] = biological target: Flag-tagged Mi-2 (Drosophila melanogaster) (UniProt O97159); experiment: co-IP; S2 cells co-transfected with Flag-Mi-2 and Myc-Foxo, lysed after 48 h (150 mM NaCl, 50 mM Tris-HCl pH 7.5, 10% glycerol, 0.5% Triton X-100); anti-Flag beads at 4°C overnight; washes with 500 mM NaCl; blots for Flag and Myc
[2] = biological target: endogenous Mi-2 (Drosophila melanogaster (endogenous in fat body of w1118 flies)) (UniProt O97159); experiment: co-IP; lysate of fat body tissue dissected from w1118 flies; immunoprecipitation with anti-Mi-2 antibodies and agarose beads at 4°C overnight, rat IgG as control; washes with 500 mM NaCl; Western blot

Row | Substance | binding [1] | binding [2]
1 | Myc-tagged Foxo (from UniProt Q95V55 1-613) | binds | 
2 | endogenous Foxo (fat body) (from UniProt Q95V55 1-613) |  | binds
